From PubChem BioAssay AID540276 (National Center for Advancing Translational Sciences (NCATS), 2011)
“And” between values parts separate entries of the source, which are not always exact repeats. Identical values can stand only once. Hit rate of the full screen: of about 300,000 compounds, about 5,400 (1.8%) were called active. This list was built around the results that the source calls inconclusive (neither active nor inactive); the mix of calls is not that of the screen. Calls follow the shape of the full dose curve; tested in HEK293 cells. A potency beside an inconclusive call is a rough fit, not a confirmed value.

Assay: qHTS for inhibitors of binding or entry into cells for Marburg Virus
Conditions: Marburg virus pseudotyped entry inhibition, cell reporter; activity change, negative = inhibition: at 37.8 µM (top of the series) unless noted
% is scaled to controls: 0 for no effect and ±100 for the full control effect; potency is read from the fitted curve at half-maximal effect.

Row | SMILES | activity change, negative = inhibition | Potency
1 | Cc1ccc2cccc(OCC(=O)N3CCc4ccccc43)c2n1 | inactive: 2.05% [at 46.1 µM] | 
2 | COc1ccc(NC(=O)c2ccc3c(=O)n4c(nc3c2)CCCCC4)cc1 | inactive: 14.8% [at 46.1 µM] | 
3 | Cc1nc(N=Nc2cc(S(=O)(=O)O)c3cc([N+](=O)[O-])cc(S(=O)(=O)O)c3c2)c(COP(=O)(O)O)c(C=O)c1O |  | active: 19.9 µM
4 | O=C(NCCCN1CCCC1)[C@H](CSCc1ccccc1)N1Cc2ccccc2C1=O |  | inconclusive: 15.8 µM [inhibitor, partial curve, poor fit]
5 | CCSCCOC(=O)C1=C(C)N(C)C(=O)NC1c1cc(OC)ccc1OC (stereo not drawn) |  | inconclusive: 3.16 µM [inhibitor, full curve, poor fit]
6 | CCOc1ccc(C(C)=O)cc1CN1C(=O)C(=O)N(CC)C1=O |  | inconclusive: 3.55 µM [inhibitor, partial curve, poor fit]
7 | COc1ccc(S(=O)(=O)c2c(Nc3cccc(C)c3C)sc(C(=O)c3ccccc3)c2N)cc1 |  | inconclusive: 6.31 µM [inhibitor, full curve]
8 | Cc1ccc(Nc2nc(-c3ccncc3)cs2)cc1 |  | inconclusive: 1.58 µM [inhibitor, partial curve, poor fit]
9 | CCOc1cc2c(cc1OCC)-n1cccc1C(c1cccc(OCC)c1O)NC2 (stereo not drawn) |  | inconclusive: 20 µM [inhibitor, partial curve, poor fit]
10 | NC(=S)N/N=C/c1coc2c(ccc3ccccc32)c1=O | inactive: -2% | 
11 | FC(F)(F)c1cnc(C(c2ccccn2)c2ncn[nH]2)c(Cl)c1 (stereo not drawn) |  | inconclusive: 25.1 µM [inhibitor, single point]
12 | O=C(C#Cc1ccccc1)Nc1cccc(F)c1 |  | inconclusive: 35.5 µM [inhibitor, single point]
13 | O=C(Nc1cccc(Cl)c1)C1CCCN(S(=O)(=O)c2ccc(F)cc2)C1 (stereo not drawn) |  | inconclusive: 8.2 µM [inhibitor, partial curve, poor fit]
14 | O=c1c2cc3c(cc2nc2sc(Nc4ccccc4)nn12)OCO3 |  | inconclusive: 8.91 µM [activator, partial curve, poor fit]
15 | CCCn1c(-c2ccccc2)cc(SC)c(C#N)c1=O |  | inconclusive: 17.8 µM [inhibitor, single point]
16 | Cn1cnc2cc(NS(=O)(=O)c3ccc(Br)cc3)ccc21 |  | inconclusive: 0.199 µM [activator, single point]
17 | O=C1c2ccccc2-c2onc3c(Oc4ccccc4)cc(O)c1c23 | inactive: -4.66% | 
18 | Cc1ccc(S(=O)(=O)N2CCN(CCc3ccncc3)CC2)cc1 |  | inconclusive: 35.5 µM [inhibitor, single point]
19 | CCOc1ccc(N(CC(=O)NCCSCc2ccc(C)cc2)S(C)(=O)=O)cc1 |  | inconclusive: 22.4 µM [inhibitor, single point]
20 | CC1CCN(S(=O)(=O)c2ccc3c(c2)c(=O)c(C(=O)N2CCN(c4cccc(Cl)c4)CC2)cn3C)CC1 | inactive: 11.8% [at 46.1 µM] | 
21 | Cc1ccc(C(O)C2=CCCC2=O)cc1 (stereo not drawn) |  | inconclusive: 1.06 µM [inhibitor, full curve, poor fit]
22 | CCOc1ccccc1NC(=O)C1CCN(S(=O)(=O)c2ccc(OC)c(OC)c2)CC1 | inactive: -3.14% | 

Row | SMILES | activity change, negative = inhibition | Potency
23 | Cc1ccc(-c2nn(-c3cc(N4CCNCC4)ccc3[N+](=O)[O-])c(=O)c3ccccc23)cc1 |  | inconclusive: 1 µM [inhibitor, full curve, poor fit]
24 | O=C(Nc1cccc(F)c1)C1CCCN(S(=O)(=O)c2cccc3cccnc23)C1 (stereo not drawn) |  | inactive
25 | CCCCn1c(N)c(N(CC)C(=O)c2cccc(S(=O)(=O)N3CCCc4ccccc43)c2)c(=O)[nH]c1=O | inactive: -1.3% | 
26 | Cc1ccc(C(=O)N/C(=C/c2ccc(-c3cccc([N+](=O)[O-])c3)o2)C(=O)NC(C)C)cc1 |  | inconclusive: 11.2 µM [inhibitor, partial curve, poor fit]
27 | CCOC(=O)C1=C(C)N(C)C(C)=C(C(=O)OCC)C1c1ccccc1 | inactive: 0.788% | 
28 | O=C(NNC(=O)C1CC1c1ccccc1)Nc1ccccc1 (stereo not drawn) | inactive: 12.6% | 
29 | N/C(COc1ncn(-c2ccccc2)n1)=N\S(=O)(=O)c1ccccc1 | inactive: -5.86% [at 46.1 µM] | 
30 | COc1ccc(CNC(=O)C2CCN(c3nnc(-n4c(C)ccc4C)s3)CC2)c(OC)c1 | inactive: -15.2% [at 46.1 µM] | 
31 | Cc1cccc(C2CN(C)CCc3c2cc(O)c(O)c3Cl)c1 (stereo not drawn) |  | inconclusive: 16.4 µM [inhibitor, single point] and inconclusive: 35.5 µM [inhibitor, single point]
32 | CCCCN(C(=O)c1cccc(S(=O)(=O)N2CCN(C)CC2)c1)c1c(N)n(CC(C)C)c(=O)[nH]c1=O | inactive: 29.6% [at 46.1 µM] | 
33 | CCOc1ccc(NC(=O)N(C2CCCCCC2)C2CCN(C(C)=O)CC2)cc1 | inactive: 2.58% | 
34 | Cc1ccccc1Cn1c(COc2ccc(Cl)cc2)nc2ccccc21 | inactive: -13.3% [at 46.1 µM] | 
35 | COC(=O)C1=C(C(=O)OC)[C@@H]2Nc3ccccc3[C@@]23C[C@@H](C(=O)OC)N(C(=O)NCCBr)C3=N1 |  | inconclusive: 3.35 µM [activator, partial curve, poor fit]
36 | Cc1nc2ccc(S(=O)(=O)N(C)CC(=O)Nc3ccc(C(C)C)cc3)cc2s1 | inactive: -6.83% [at 46.1 µM] | 
37 | O=C(COc1ccccc1C(=O)O)Nc1nc2ccc([N+](=O)[O-])cc2s1 |  | inconclusive: 1 µM [activator, full curve, poor fit]
38 | Cc1[nH]nc2c1C1(C(=O)N(Cc3ccc(Cl)cc3)c3ccccc31)C(C#N)=C(N)O2 (stereo not drawn) | inactive: -23.9% | 
39 | Cc1cccc(NCc2ccc([N+](=O)[O-])s2)c1 | inactive: -4.83% | 
40 | CCCCC(=O)Nc1c(C(=O)N2CCN(c3ccccc3F)CC2)oc2ccccc12 |  | inconclusive: 3.55 µM [inhibitor, partial curve, poor fit]
41 | COc1ccc(NC(=O)CSc2nc(-c3cc(OC)c(OC)c(OC)c3)[nH]c2-c2ccc(F)cc2)cc1 |  | inconclusive: 7.08 µM [inhibitor, partial curve, poor fit]
42 | O=c1[nH]c(=O)n(-c2ccccc2)c(O)c1/C=C1/C(c2ccccc2)=Nc2ccccc21 | inactive: -14.9% | 
43 | CCOC(=O)C1(c2ccccc2)CCN(CC(=O)Nc2ccc(C)cc2)CC1 | inactive: -22.1% | 
